Source: patent EP0416248A2, “Use of vitamine B6 for reducing elevated serotonin levels” (priority 1989, dated 1991)
Some entries share one result that the patent states for a list of compounds.

Molecular target: T1, PL-kinase (Homo sapiens, UniProt O00764)
T1 sequence (O00764 1-312): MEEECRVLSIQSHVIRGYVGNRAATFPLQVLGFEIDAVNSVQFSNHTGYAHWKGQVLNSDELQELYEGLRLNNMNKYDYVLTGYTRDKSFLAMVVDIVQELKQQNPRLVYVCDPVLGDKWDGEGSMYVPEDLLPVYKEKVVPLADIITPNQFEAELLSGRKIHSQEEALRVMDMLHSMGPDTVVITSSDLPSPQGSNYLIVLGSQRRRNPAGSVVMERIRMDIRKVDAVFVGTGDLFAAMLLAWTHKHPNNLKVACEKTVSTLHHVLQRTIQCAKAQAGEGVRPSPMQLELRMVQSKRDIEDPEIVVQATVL
Assay: Enzyme kinetic studies of PL-kinase inhibition
Format: biochemical

| SMILES | effect on the enzyme PL-kinase |
| --- | --- |
| CCCn1c(=O)[nH]c(=O)c2[nH]cnc21 [enprofylline, 3-propylxanthine] | specifically supress |
| Cn1c(=O)c2[nH]cnc2n(C)c1=O [theophylline] | specifically supress |
